Data as given in doi:10.1101/2022.06.26.497666 (bioRxiv, 2022).
These are yes or no findings as the source states them, for the method shown. Binding calls can cover weak binding; strength is not graded here. For part of these data: In cells and extracts the contact can be indirect. Blank lines part the entries; values can stand above or below the molecule they belong to.

Protein sequences, listed by entry. Tags and fused reporters are not part of them.
UniProt Q9ULZ3: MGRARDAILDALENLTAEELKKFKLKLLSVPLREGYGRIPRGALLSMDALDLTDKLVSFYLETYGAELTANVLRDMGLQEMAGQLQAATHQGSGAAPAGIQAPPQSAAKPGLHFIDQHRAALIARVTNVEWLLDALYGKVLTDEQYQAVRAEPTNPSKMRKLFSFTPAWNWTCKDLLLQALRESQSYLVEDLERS

How the values were obtained:
[1] = target: T1, NLRP1 (wild-type full-length human NLRP1) (human) (UniProt Q9C000); experiment: co-IP
T1 sequence: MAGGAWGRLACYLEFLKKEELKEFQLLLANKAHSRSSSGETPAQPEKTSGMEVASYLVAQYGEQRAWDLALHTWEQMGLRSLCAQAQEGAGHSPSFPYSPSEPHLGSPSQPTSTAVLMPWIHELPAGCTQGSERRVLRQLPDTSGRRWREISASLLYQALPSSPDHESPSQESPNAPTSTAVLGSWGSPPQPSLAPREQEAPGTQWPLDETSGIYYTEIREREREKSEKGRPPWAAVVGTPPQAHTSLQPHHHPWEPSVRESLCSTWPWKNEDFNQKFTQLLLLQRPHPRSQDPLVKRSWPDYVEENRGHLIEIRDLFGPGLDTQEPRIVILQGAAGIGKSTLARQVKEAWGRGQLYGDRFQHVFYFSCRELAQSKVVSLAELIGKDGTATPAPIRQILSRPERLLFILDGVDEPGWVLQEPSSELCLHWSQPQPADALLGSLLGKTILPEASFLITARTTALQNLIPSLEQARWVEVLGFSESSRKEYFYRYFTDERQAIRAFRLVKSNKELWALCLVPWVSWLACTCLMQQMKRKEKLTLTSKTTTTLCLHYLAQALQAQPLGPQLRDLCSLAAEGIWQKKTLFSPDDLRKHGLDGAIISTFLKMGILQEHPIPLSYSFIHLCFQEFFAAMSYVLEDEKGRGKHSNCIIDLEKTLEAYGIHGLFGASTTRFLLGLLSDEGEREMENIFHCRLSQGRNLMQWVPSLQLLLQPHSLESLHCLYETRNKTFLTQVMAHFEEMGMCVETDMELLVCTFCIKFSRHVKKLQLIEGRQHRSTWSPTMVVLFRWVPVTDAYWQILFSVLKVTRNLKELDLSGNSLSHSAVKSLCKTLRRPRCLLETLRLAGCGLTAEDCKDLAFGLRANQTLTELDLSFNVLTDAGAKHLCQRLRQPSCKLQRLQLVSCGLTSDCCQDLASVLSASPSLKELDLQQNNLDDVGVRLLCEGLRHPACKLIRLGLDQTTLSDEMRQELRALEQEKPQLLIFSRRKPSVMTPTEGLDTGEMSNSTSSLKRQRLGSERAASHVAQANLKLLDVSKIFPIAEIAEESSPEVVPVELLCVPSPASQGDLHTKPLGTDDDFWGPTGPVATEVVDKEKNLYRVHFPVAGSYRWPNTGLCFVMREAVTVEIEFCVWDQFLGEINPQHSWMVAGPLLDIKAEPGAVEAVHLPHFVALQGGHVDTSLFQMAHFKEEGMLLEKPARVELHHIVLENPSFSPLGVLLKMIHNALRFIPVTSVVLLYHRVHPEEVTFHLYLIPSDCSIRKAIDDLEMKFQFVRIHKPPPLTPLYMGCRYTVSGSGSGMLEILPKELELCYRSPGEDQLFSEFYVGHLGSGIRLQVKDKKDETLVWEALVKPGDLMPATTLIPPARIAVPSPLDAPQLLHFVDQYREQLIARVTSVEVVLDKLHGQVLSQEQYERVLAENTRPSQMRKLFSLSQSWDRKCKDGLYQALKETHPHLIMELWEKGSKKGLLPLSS

[2] = target: full-length ASC (pBIND, DNA-binding domain fusion) (human) (UniProt Q9ULZ3); experiment: two-hybrid
[3] = target: NLRP1 LRR domain (truncation mutant of NLRP1) (human) (UniProt Q9C000); experiment: co-IP

binding [1]: binds
Molecule: CARD8-T60 ZU5 subdomain (truncation mutant of CARD8-T60) (from UniProt Q9Y2G2-5) (domain or fragment)

binding [2]: binds
Molecule: NLRP1 UPA-CARD fragment (pACT, VP16 activation domain fusion) (from UniProt Q9C000-1) (domain or fragment)

binding [3]: binds
B1: CARD8-T60 isoform (full-length) (natural protein)
chain: MEKKECPEKSSSSEEELPRRDSGSSRNIDASKLIRLQGSRKLLVDNSIRELQYTKTGIFFQAEACVTNDTVYRELPCVSETLCDISHFFQEDDETEAEPLLFRAVPECQLSGGDIPSVSEEQESSEGQDSGDICSEENQIVSSYASKVCFEIEEDYKNRQFLGPEGNVDVELIDKSTNRYSVWFPTAGWYLWSATGLGFLVRDEVTVTIAFGSWSQHLALDLQHHEQWLVGGPLFDVTAEPEEAVAEIHLPHFISLQAGEVDVSWFLVAHFKNEGMVLEHPARVEPFYAVLESPSFSLMGILLRIASGTRLSIPITSNTLIYYHPHPEDIKFHLYLVPSDALLTKAIDDEEDRFHGVRLQTSPPMEPLNFGSSYIVSNSANLKVMPKELKLSYRSPGEIQHFSKFYAGQMKEPIQLEITEKRHGTLVWDTEVKPVDLQLVAASAPPPFSGAAFVKENHRQLQARMGDLKGVLDDLQDNEVLTENEKELVEQEKTRQSKNEALLSMVEKKGDLALDVLFRSISERDPYLVSYLRQQNL
